From publication PMC9223585, “Structural and Functional Insights into CP2c Transcription Factor Complexes” (International Journal of Molecular Sciences, 2022) come the findings set out here.

Chains of the proteins cited; added tags and fusions are not shown.
UniProt O88907: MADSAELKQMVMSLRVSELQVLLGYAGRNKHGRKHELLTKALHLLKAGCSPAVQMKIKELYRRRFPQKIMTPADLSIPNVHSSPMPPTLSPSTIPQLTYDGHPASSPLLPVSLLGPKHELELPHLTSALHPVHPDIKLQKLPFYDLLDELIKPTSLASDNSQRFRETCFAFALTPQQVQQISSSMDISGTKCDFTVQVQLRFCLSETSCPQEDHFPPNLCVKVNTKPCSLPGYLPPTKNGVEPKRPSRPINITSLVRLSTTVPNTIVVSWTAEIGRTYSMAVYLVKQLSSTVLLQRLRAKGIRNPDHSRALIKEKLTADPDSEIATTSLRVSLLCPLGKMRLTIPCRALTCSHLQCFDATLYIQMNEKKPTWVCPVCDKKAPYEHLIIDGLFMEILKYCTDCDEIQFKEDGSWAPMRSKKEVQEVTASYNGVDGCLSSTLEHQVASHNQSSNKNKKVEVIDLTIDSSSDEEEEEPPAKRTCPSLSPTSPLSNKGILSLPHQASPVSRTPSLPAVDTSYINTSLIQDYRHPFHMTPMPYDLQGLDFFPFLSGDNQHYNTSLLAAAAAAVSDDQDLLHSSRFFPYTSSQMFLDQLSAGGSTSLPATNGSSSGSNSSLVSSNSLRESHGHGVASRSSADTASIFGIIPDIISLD

The target of assay [1] is T1, CP2c (Tfcp2), endogenous mouse (mouse (endogenous in MEL)) (UniProt Q9ERA0).
T1 sequence: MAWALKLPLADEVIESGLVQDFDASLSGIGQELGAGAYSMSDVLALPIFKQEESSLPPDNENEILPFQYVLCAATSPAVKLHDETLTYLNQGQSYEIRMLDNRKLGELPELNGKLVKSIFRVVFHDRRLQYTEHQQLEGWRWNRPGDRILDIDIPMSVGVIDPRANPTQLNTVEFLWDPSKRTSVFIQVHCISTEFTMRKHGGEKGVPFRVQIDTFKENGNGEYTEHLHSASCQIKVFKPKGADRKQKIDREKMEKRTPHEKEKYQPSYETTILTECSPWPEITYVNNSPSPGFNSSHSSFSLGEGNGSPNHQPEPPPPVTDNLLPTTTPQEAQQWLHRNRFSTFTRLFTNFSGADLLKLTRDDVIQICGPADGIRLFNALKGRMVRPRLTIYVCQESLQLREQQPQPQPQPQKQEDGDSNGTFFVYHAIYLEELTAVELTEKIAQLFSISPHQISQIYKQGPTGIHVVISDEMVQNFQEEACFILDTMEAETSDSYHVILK
The assay can be described thus: cross-linking + co-IP; DSP XL-WB: nuclear extracts of MEL cells, uninduced (d0) and HMBA-induced (d3), Benzonase, 2 mM DSP 30 min at room temperature, IP, sequential Western blot with and without DTT. (In general: In western blotting, separated proteins are transferred to a membrane and probed.)

Assay [2] deals with T1, CP2c (Tfcp2), endogenous mouse (mouse (endogenous in MEL)). The assay can be described thus: cross-linking + co-IP; DSP XL-WB: cytosolic extracts of MEL cells, uninduced (d0) and HMBA-induced (d3), Benzonase, 2 mM DSP 30 min at room temperature, IP, sequential Western blot with and without DTT.
In assay [3] the target is T2, Flag-CP2c (UniProt Q9ERA0).
T2 sequence: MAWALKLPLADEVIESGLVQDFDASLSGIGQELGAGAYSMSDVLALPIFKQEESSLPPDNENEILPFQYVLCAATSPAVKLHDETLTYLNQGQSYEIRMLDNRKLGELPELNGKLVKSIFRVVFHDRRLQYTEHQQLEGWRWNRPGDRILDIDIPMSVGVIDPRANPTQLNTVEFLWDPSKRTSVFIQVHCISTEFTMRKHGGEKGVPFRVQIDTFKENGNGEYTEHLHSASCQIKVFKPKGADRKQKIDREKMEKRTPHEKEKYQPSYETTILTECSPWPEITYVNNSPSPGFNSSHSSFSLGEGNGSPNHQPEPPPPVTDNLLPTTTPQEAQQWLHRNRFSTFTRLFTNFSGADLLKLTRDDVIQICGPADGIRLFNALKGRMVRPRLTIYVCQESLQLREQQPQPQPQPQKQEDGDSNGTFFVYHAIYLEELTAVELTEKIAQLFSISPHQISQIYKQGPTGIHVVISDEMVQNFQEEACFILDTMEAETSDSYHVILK
In words: cross-linking + co-IP; DSP XL-WB: nuclear extracts of 293T cells overexpressing Flag-CP2c, EGFP-CP2b and Flag-PIAS1, with or without CP2a; 2 mM DSP, IP, sequential Western blot.

Assay [4] concerns the target T3, CP2c (TFCP2), endogenous human (human (endogenous in MDA-MB-231)) (UniProt Q12800).
T3 sequence: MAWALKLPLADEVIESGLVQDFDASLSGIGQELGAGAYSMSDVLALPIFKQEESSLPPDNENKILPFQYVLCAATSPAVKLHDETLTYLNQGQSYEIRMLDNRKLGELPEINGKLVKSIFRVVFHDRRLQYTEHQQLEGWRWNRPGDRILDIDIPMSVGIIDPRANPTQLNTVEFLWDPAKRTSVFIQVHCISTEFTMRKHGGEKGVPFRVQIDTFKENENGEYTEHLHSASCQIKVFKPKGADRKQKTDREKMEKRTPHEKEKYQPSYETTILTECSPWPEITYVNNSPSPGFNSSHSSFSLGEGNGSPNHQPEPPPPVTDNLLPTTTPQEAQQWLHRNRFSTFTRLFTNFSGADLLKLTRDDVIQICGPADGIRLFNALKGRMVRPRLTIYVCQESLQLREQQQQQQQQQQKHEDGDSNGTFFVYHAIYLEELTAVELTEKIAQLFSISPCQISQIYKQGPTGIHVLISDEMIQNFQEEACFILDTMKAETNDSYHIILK
In words: cross-linking + co-IP; DSP XL-WB: cytosolic extracts of MDA-MB-231 cells, Benzonase, 2 mM DSP 30 min at room temperature, IP with CP2c, CP2b or PIAS1 antibodies, sequential Western blot with and without DTT.

These are yes or no findings as the source states them, for the method shown. Binding seen in cells or lysates may run through a third protein. Some entries that bind do so weakly or less than the wild type. For part of these data: Sequences can lack the tags named with a protein.

As for “Pias1, endogenous mouse (from UniProt O88907 1-651)”, the binding entry in assay [1] and in assay [2] was “binds” each time.
As for Flag-PIAS1 (from UniProt O88907 1-651), the binding result in assay [3] is given as “binds”.

B1: CP2b, endogenous mouse (protein, UniProt Q811S7 1-540)
chain: MAWVLSMDEVIESGLVHDFDSSLSGIGQELGAGAYSMSDVLALPIFKQEDSSLSLEDEAKHPPFQYVMCAATSPAVKLHDETLTYLNQGQSYEIRMLDNRKMGDMPELSGKLVKSIIRVVFHDRRLQYTEHQQLEGWKWNRPGDRLLDLDIPMSVGIIDTRTNPSQLNAVEFLWDPAKRTSAFIQVHCISTEFTPRKHGGEKGVPFRIQVDTFKQNENGEYTDHLHSASCQIKVFKPKGADRKQKNDREKMEKRTAHEKEKYQPSYDTTILTEMRLEPIIEDAVEHEQKKSSKRTLPADYGDSLAKRGSCSPWPDTPTAYVNNSPSPAPTFTSSQPSTCSVPDSNSSSPNHQGDGAAQASGEQIQPSATTQETQQWLLKNRFSSYTRLFSNFSGADLLKLTKEDLVQICGAADGIRLYNSLKSRSVRPRLTIYVCQEQPSSTALQGQPQAAGSGGESGGGTPSVYHAIYLEEMVASEVARKLASVFNIPFHQINQVYRQGPTGIHILVSDQMVQNFQDETCFLFSTVKAENNDGIHIILK
As to B1, the binding entry in assay [1] and in assay [2] was “binds” in each case.

B2: EGFP-CP2b (protein, UniProt Q811S7 1-540)
chain: MAWVLSMDEVIESGLVHDFDSSLSGIGQELGAGAYSMSDVLALPIFKQEDSSLSLEDEAKHPPFQYVMCAATSPAVKLHDETLTYLNQGQSYEIRMLDNRKMGDMPELSGKLVKSIIRVVFHDRRLQYTEHQQLEGWKWNRPGDRLLDLDIPMSVGIIDTRTNPSQLNAVEFLWDPAKRTSAFIQVHCISTEFTPRKHGGEKGVPFRIQVDTFKQNENGEYTDHLHSASCQIKVFKPKGADRKQKNDREKMEKRTAHEKEKYQPSYDTTILTEMRLEPIIEDAVEHEQKKSSKRTLPADYGDSLAKRGSCSPWPDTPTAYVNNSPSPAPTFTSSQPSTCSVPDSNSSSPNHQGDGAAQASGEQIQPSATTQETQQWLLKNRFSSYTRLFSNFSGADLLKLTKEDLVQICGAADGIRLYNSLKSRSVRPRLTIYVCQEQPSSTALQGQPQAAGSGGESGGGTPSVYHAIYLEEMVASEVARKLASVFNIPFHQINQVYRQGPTGIHILVSDQMVQNFQDETCFLFSTVKAENNDGIHIILK
Regarding B2, the binding entry in assay [3] is recorded as “binds”.

B3: CP2a, endogenous human (protein, UniProt Q9NZI7-4 1-504)
chain: MAWVLKMDEVIESGLVHDFDASLSGIGQELGAGAYSMSDVLALPIFKQEDSSLPLDGETEHPPFQYVMCAATSPAVKLHDETLTYLNQGQSYEIRMLDNRKMGDMPEINGKLVKSIIRVVFHDRRLQYTEHQQLEGWKWNRPGDRLLDLDIPMSVGIIDTRTNPSQLNAVEFLWDPAKRTSAFIQVHCISTEFTPRKHGGEKGVPFRIQVDTFKQNENGEYTDHLHSASCQIKVFKPKGADRKQKTDREKMEKRTAHEKEKYQPSYDTTILTECSPWPDAPTAYVNNSPSPAPTFTSPQQSTCSVPDSNSSSPNHQGDGASQTSGEQIQPSATIQETQQWLLKNRFSSYTRLFSNFSGADLLKLTKEDLVQICGAADGIRLYNSLKSRSVRPRLTIYVCREQPSSTVLQGQQQAASSASENGSGAPYVYHAIYLEEMIASEVARKLALVFNIPLHQINQVYRQGPTGIHILVSDQMVQNFQDESCFLFSTVKAESSDGIHIILK
B3: the binding result in assay [4] is “binds”.

B4: CP2c (Tfcp2), endogenous mouse (protein, UniProt Q9ERA0 1-502)
chain: MAWALKLPLADEVIESGLVQDFDASLSGIGQELGAGAYSMSDVLALPIFKQEESSLPPDNENEILPFQYVLCAATSPAVKLHDETLTYLNQGQSYEIRMLDNRKLGELPELNGKLVKSIFRVVFHDRRLQYTEHQQLEGWRWNRPGDRILDIDIPMSVGVIDPRANPTQLNTVEFLWDPSKRTSVFIQVHCISTEFTMRKHGGEKGVPFRVQIDTFKENGNGEYTEHLHSASCQIKVFKPKGADRKQKIDREKMEKRTPHEKEKYQPSYETTILTECSPWPEITYVNNSPSPGFNSSHSSFSLGEGNGSPNHQPEPPPPVTDNLLPTTTPQEAQQWLHRNRFSTFTRLFTNFSGADLLKLTRDDVIQICGPADGIRLFNALKGRMVRPRLTIYVCQESLQLREQQPQPQPQPQKQEDGDSNGTFFVYHAIYLEELTAVELTEKIAQLFSISPHQISQIYKQGPTGIHVVISDEMVQNFQEEACFILDTMEAETSDSYHVILK
Turning to B4, the binding entry in assay [1] and in assay [2] was “binds” throughout.
